Source: publication PMC7819943, “Rice protein-binding microarrays: a tool to detect cis-acting elements near promoter regions in rice”
The list shows a part of the results.

Each sequence was assayed against T1, OsSMF1 (Oryza sativa, UniProt Q6ZLB0 1-436) (assay: protein-binding microarray (RPBM); PBS, 2% BSA, 51.3 ng/ul salmon testes DNA, 50 uM zinc acetate, 200 nM TF, 25 C, 1 h; high values mean tight binding). Details: protein: recombinant; tags: N-terminal polyhistidine and DsRed monomer fusion (pET32a); chain copies: 2; label: CyDye5-dUTP incorporated in the synthesized complementary strand; 3' TTTTT single-stranded linker to array surface; dsDNA, one strand shown.
T1 sequence: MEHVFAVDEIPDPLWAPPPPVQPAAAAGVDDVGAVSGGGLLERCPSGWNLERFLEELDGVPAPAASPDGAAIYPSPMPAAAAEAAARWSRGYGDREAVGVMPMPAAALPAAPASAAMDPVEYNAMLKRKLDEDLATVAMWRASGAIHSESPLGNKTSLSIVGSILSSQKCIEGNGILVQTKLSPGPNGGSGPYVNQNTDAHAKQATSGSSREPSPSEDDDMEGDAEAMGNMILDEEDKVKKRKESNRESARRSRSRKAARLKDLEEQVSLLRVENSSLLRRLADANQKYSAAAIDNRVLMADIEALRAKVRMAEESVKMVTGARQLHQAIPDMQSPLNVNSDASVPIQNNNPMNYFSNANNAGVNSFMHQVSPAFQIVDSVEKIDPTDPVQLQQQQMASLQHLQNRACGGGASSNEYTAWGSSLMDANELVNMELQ
Procedure, shortened: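 An Axon 4000B scanner gave the binding signal as per-feature fluorescence intensity in arbitrary units. This followed washing of a custom Agilent array that had been incubated for 1 h at 25 °C with 200 nM protein in PBS, 2% BSA, salmon testes DNA and 50 µM zinc acetate. The proteins were transcription factors fused at the N-terminus to polyhistidine and DsRed, expressed in E. coli BL21-CodonPlus and purified on Ni–NTA.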

Q: How did the binding signal turn out when “ATGGGACTTATCTCGGTGAGGATGTTGCTGTTAAAATTCTCGGAGTCACCTAGTGCAG” was run?
A: 3610 fluorescence intensity (a.u.)

Q: “GGCATCTGCGGCGCGCGCGCGTCATCCTCATCCCCAGCTACGGAGTCACCTAGTGCAG” was tested. Which binding signal did it give?
A: 4130 fluorescence intensity (a.u.)

Q: How did the binding signal turn out when “GGCCTCGTCGCCGAGACAGCCAACTACGCCGCGGTGGCAGCGGAGTCACCTAGTGCAG” was run?
A: 4320 fluorescence intensity (a.u.)

Q: Which binding signal does the source give for “CCTCGAGATTTGCGTCAGAACACAAGAGCGACGACCCCACCGGAGTCACCTAGTGCAG” here?
A: 3660 fluorescence intensity (a.u.)

Q: “CTCGGGGTTAAGCAGAGGTTATCGTCCCCGCCGCAGGTTACGGAGTCACCTAGTGCAG” was tested. Which binding signal did it give?
A: 4020 fluorescence intensity (a.u.)

Q: With “CTCTGGCGCGCTCGCGCCGGTCCATGTCACGTCAAGCAAACGGAGTCACCTAGTGCAG” as the sequence, how does the binding signal read?
A: 4310 fluorescence intensity (a.u.)

Q: Which binding signal does the source give for “ACTCGTCGGTAGTAATCAGTCAGCTCATCAGCATCTGATCCGGAGTCACCTAGTGCAG” here?
A: 3280 fluorescence intensity (a.u.)

Q: How did the binding signal turn out when “TCGTGCTACAGATCTATAGCACACTACTCTTCTCTCTCTTCGGAGTCACCTAGTGCAG” was run?
A: 3370 fluorescence intensity (a.u.)

Q: How did the binding signal turn out when “AATCGCCGTACCAACGCCCACCTCGTTGGGTACCGTCATACGGAGTCACCTAGTGCAG” was run?
A: 3260 fluorescence intensity (a.u.)

Q: With “ATCCTTTTCACAAATTACAACTAGTCCCAGCCTCCCAGTTCGGAGTCACCTAGTGCAG” as the sequence, how does the binding signal read?
A: 27500 fluorescence intensity (a.u.)

Q: How did the binding signal turn out when “TCACGCTAACTCTGACGTCGATCTCCTGTGAAGTCGTGGCCGGAGTCACCTAGTGCAG” was run?
A: 8220 fluorescence intensity (a.u.)

Q: For “CACATTGAGTCAGCTGCCACGTCGGATAAAACCGGAGTCACGGAGTCACCTAGTGCAG”, which binding signal is on record?
A: 15000 fluorescence intensity (a.u.)

Q: Which binding signal does the source give for “AGCCAGTAAGAGATCAACGGCTCTCAGTGAAGCAACGTCTCGGAGTCACCTAGTGCAG” here?
A: 20500 fluorescence intensity (a.u.)

Q: How did the binding signal turn out when “AGGGAATTACAACAAACAGTCCAGTCATTTCACCCACCGCCGGAGTCACCTAGTGCAG” was run?
A: 5650 fluorescence intensity (a.u.)

Q: How did the binding signal turn out when “AACATTGAATTGGATCGTTGACTTGGACGAGTCATCGCCGCGGAGTCACCTAGTGCAG” was run?
A: 4700 fluorescence intensity (a.u.)

Q: For “GCGTGCCACATCAGCACCACGTAGGATCCTAGAGGGGCTACGGAGTCACCTAGTGCAG”, which binding signal is on record?
A: 25300 fluorescence intensity (a.u.)

Q: How did the binding signal turn out when “CTCCGTCCACTGGACAGGGCAGAGGCTGCCTACCAGACACCGGAGTCACCTAGTGCAG” was run?
A: 4640 fluorescence intensity (a.u.)

Q: With “CCCCTTTAAATTCACCCATGCACACGTCGTCGCAAATCACCGGAGTCACCTAGTGCAG” as the sequence, how does the binding signal read?
A: 3410 fluorescence intensity (a.u.)

Q: For “CCTCCTCGCGTCAGGAGGCGCAACTGCGCGTGCAAACAAACGGAGTCACCTAGTGCAG”, which binding signal is on record?
A: 14000 fluorescence intensity (a.u.)

Q: “CAACAGCAAGAGGAGCTTCTCTTCCAAATGCCAGGACATGCGGAGTCACCTAGTGCAG” was tested. Which binding signal did it give?
A: 3270 fluorescence intensity (a.u.)

Q: For “CCGTTCGCCATTCGTTTCCACGCATCCCTTCCACTGACTCCGGAGTCACCTAGTGCAG”, which binding signal is on record?
A: 3840 fluorescence intensity (a.u.)

Q: With “GATTTCTGATCTGTGCCGCGTGGACGCCATCCTCTCCAGGCGGAGTCACCTAGTGCAG” as the sequence, how does the binding signal read?
A: 35300 fluorescence intensity (a.u.)

Q: “AAGACGACGACGACGGTGTCTGCTGCGTCGGCTGCTCCGGCGGAGTCACCTAGTGCAG” was tested. Which binding signal did it give?
A: 18400 fluorescence intensity (a.u.)

Q: “AAAGAGCGCACGCCCCACTCGACACGTTGCCCCACCTCAACGGAGTCACCTAGTGCAG” was tested. Which binding signal did it give?
A: 5280 fluorescence intensity (a.u.)

Q: With “ACAGCATCCAATTCAAACGGATCAAGACTTAAATAATCCCCGGAGTCACCTAGTGCAG” as the sequence, how does the binding signal read?
A: 3280 fluorescence intensity (a.u.)

Q: For “ATCCATCCACCCAACCAGCCACGCCTTGCAAACGGCCAAACGGAGTCACCTAGTGCAG”, which binding signal is on record?
A: 3360 fluorescence intensity (a.u.)

Q: How did the binding signal turn out when “AAGCAGGCTAGATCCCATCTCATGCGTATGCATGATGCCACGGAGTCACCTAGTGCAG” was run?
A: 3180 fluorescence intensity (a.u.)

Q: For “GCACCAGCCAGTCAGCCCACCATTTCAAACGCCACACTCACGGAGTCACCTAGTGCAG”, which binding signal is on record?
A: 60800 fluorescence intensity (a.u.)

Q: With “TAGGGATAATGTGCCTTCGTGTTAAGTAGCCAGGCACGTACGGAGTCACCTAGTGCAG” as the sequence, how does the binding signal read?
A: 3220 fluorescence intensity (a.u.)

Q: How did the binding signal turn out when “AGATTCGTTGTATTAAAATGTGTCACATTCAATCTATTAGCGGAGTCACCTAGTGCAG” was run?
A: 3920 fluorescence intensity (a.u.)

Q: For “AGCCCGCTCTCACGTGGTCAGCACGTGTGCCACCTCAGCACGGAGTCACCTAGTGCAG”, which binding signal is on record?
A: 10000 fluorescence intensity (a.u.)

Q: “TCCTGCGCTATTAATGCCACCATCACACTCTGACACTCATCGGAGTCACCTAGTGCAG” was tested. Which binding signal did it give?
A: 3280 fluorescence intensity (a.u.)

Q: For “GGGACAATATTGGGTACGTGGAGCACGTACCTCCATCCTACGGAGTCACCTAGTGCAG”, which binding signal is on record?
A: 3890 fluorescence intensity (a.u.)

Q: How did the binding signal turn out when “TTCGTTTTAAAACTATAAGATGGAACTTAATTTGAAAACACGGAGTCACCTAGTGCAG” was run?
A: 10300 fluorescence intensity (a.u.)

Q: For “CAAAGGCGGCAGCTCGTGCGTGTCACGCGAGGGCATCACACGGAGTCACCTAGTGCAG”, which binding signal is on record?
A: 3150 fluorescence intensity (a.u.)

Q: For “GGGGACGCCCCTCGTCACTCATCATTTAATGAACAAGGACCGGAGTCACCTAGTGCAG”, which binding signal is on record?
A: 3520 fluorescence intensity (a.u.)

Q: With “TGCGGCAGGCTCATGACATGGCTGATGTCGAGCCTGTCAACGGAGTCACCTAGTGCAG” as the sequence, how does the binding signal read?
A: 3170 fluorescence intensity (a.u.)

Q: With “TCGTCGCATCGGATCACAATGGTTAATCTAATTCCTGCAACGGAGTCACCTAGTGCAG” as the sequence, how does the binding signal read?
A: 17500 fluorescence intensity (a.u.)

Q: “ACGCGGCACCAACCGCGCGCCCACGCGAGCGCTCGCGCCGCGGAGTCACCTAGTGCAG” was tested. Which binding signal did it give?
A: 20300 fluorescence intensity (a.u.)

Q: “ACGCGCCGGCTCATGCATCTCTCCGGCGCGCGGCTGAGGACGGAGTCACCTAGTGCAG” was tested. Which binding signal did it give?
A: 4350 fluorescence intensity (a.u.)

Q: How did the binding signal turn out when “CCACTCCTCTTTCACACGTATATCAGCCCGAGCCACCCGTCGGAGTCACCTAGTGCAG” was run?
A: 3930 fluorescence intensity (a.u.)

Q: Which binding signal does the source give for “ATTGACTTTGTTACATCATTGTAGCAATATGTCGACAGGGCGGAGTCACCTAGTGCAG” here?
A: 3620 fluorescence intensity (a.u.)

Q: Which binding signal does the source give for “ATGAGCACAGGGAGCTCAGATCCGATCACTAGAGTAGATGCGGAGTCACCTAGTGCAG” here?
A: 3430 fluorescence intensity (a.u.)

Q: Which binding signal does the source give for “TTTTCTCACGTGGAAACCACCGTTCGCTTCGTTAACCTCCCGGAGTCACCTAGTGCAG” here?
A: 4970 fluorescence intensity (a.u.)

Q: “CACATCGAACGGTCCAAGAACAACCACATCACCAATGTGCCGGAGTCACCTAGTGCAG” was tested. Which binding signal did it give?
A: 3710 fluorescence intensity (a.u.)

Q: With “CCGCTTCGTTCCACGCCGCCGCGCCTTCCTCCCTCCTCCGCGGAGTCACCTAGTGCAG” as the sequence, how does the binding signal read?
A: 3250 fluorescence intensity (a.u.)

Q: Which binding signal does the source give for “CGCCGCTCCTCCTCATCATCCTGCCACCGTGGTGAAGCGGCGGAGTCACCTAGTGCAG” here?
A: 4080 fluorescence intensity (a.u.)

Q: For “GAAGCAGACAGGAATAGCTGCCATCCTGTCATAACTTGTACGGAGTCACCTAGTGCAG”, which binding signal is on record?
A: 3250 fluorescence intensity (a.u.)

Q: How did the binding signal turn out when “TGGCCAGGGCCCAGGTGGGAGGCCGTGACGGCGGTAGCAGCGGAGTCACCTAGTGCAG” was run?
A: 3480 fluorescence intensity (a.u.)

Q: How did the binding signal turn out when “CTCCGCCGCTGGCCGCCTTGCCTGCTTGAGAGGAGGAGAGCGGAGTCACCTAGTGCAG” was run?
A: 26800 fluorescence intensity (a.u.)

Q: How did the binding signal turn out when “CTAGCCAGACAACGAGGCGGATTCGCCGGCCGCCGCGTCGCGGAGTCACCTAGTGCAG” was run?
A: 8920 fluorescence intensity (a.u.)

Q: With “CGGACGTCCCACACGCTTGGTGTCACGACGAGAGGAACCTCGGAGTCACCTAGTGCAG” as the sequence, how does the binding signal read?
A: 3450 fluorescence intensity (a.u.)

Q: Which binding signal does the source give for “GCTGGAACTCGCCGGAGCTGGTCATCACGTACCGCGTCGGCGGAGTCACCTAGTGCAG” here?
A: 4030 fluorescence intensity (a.u.)

Q: How did the binding signal turn out when “GCGGCAACCACGCCCTCCCCTCCGCCAGATCCGGCGGGAGCGGAGTCACCTAGTGCAG” was run?
A: 3840 fluorescence intensity (a.u.)
